Values quoted from earlier work, collected in US20190015327A1, “COMPOSITIONS AND METHODS FOR TREATING CONDITIONS RELATED TO LACK OF BLOOD SUPPLY, SHOCK AND NEURONAL INJURIES” (VIVACELLE BIO, INC., priority 2015, published 2019).
For at least one compound, name, drawing or mass did not settle the structure.

Conditions: cited from earlier work

## [Xe] [Xenon]
  minimum alveolar concentration (MAC): 71%
  more potent than N2O as an anesthetic: 50%
